{"source": "paper PMC12826058", "key": {"[1]": {"molecular_target": "AdiY-H34A/H60A variant (N-terminally His6-tagged) (E. coli) (UniProt P33234)", "test": "SEC; Superdex 75 Increase 10/300 GL, 50 mM sodium phosphate pH 7.4, 300 mM NaCl, 2% glycerol, 2 mM DTT, 2 mM EDTA; 0.5 mL sample at 0.5 mg/mL; calibrated with molecular weight standards; both purified"}, "[2]": {"molecular_target": "AdiY-H34A/H60A variant (N-terminally His6-tagged) (E. coli) (UniProt P33234)", "test": "SEC; Superdex 75 Increase 10/300 GL, 50 mM sodium phosphate pH 5.8, 300 mM NaCl, 2% glycerol, 2 mM DTT, 2 mM EDTA; 0.5 mL sample at 0.5 mg/mL; calibrated with molecular weight standards; both purified"}}, "note": "Results are given in words; binding and its absence hold for the method and conditions named. Sequences can lack the tags named with a protein.", "data": [{"binder": "AdiY-H34A/H60A variant (N-terminally His6-tagged) (protein, UniProt P33234 1-253) MRICSDQPCIVLLTEKDVWIRVNGKEPISLKANAMALLNCENNIIDVSSLNNTLVAHISADIIKDYLRFLNKDLSQIPVWQRSATPILTLPCLTPDVFRVAAQHSMMPAETESEKERTRALLFTVLSRFLDSKKFVSLMMYMLRNCVSDSVYQIIESDIHKDWNLSMVASCLCLSPSLLKKKLKSENTSYSQIITTCRMRYAVNELMMDGKNISQVSQSCGYNSTSYFISVFKDFYGMTPLHYVSQHRERTVA", "values": [{"measurement": "binding", "setting": "[1]", "result": "no binding (tested: 0.5 mg/mL)"}, {"measurement": "binding", "setting": "[2]", "result": "no binding (tested: 0.5 mg/mL)"}]}]}
